# Some of the results follow.
# Assay: mutant yeast GCN4 reporter luminescence inhibitors – S. cerevisiae, eIF2B-epsilon R284H, Beta-Glo luminescence, primary screen (AID 688)
# Details: GCN4-lacZ luminescence, measured here: mutant yeast growth, toxicity, concentration not given here
row,SMILES,growth inhibition
1,O=C(OC1CN2CCC1CC2)c1cccc(Cl)c1 (configuration not stated),-23.8%
2,O=P1(Nc2nc3ccc(Cl)cc3s2)COc2ccccc2O1 (configuration not stated),14.8%
3,Cc1c(NP(C)(=O)Oc2ccc(C(C)C)cc2)c(=O)n(-c2ccccc2)n1C (configuration not stated),-2.27%
4,Cc1c2non([O-])c-2c(C)[n+](=O)[n+]1[O-],-15.8%
5,Oc1ccccc1CNc1ccccn1,8.06%
6,COc1ccc(OP(C)(=O)Nc2ccccn2)cc1 (configuration not stated),17.6%
7,CN1CCCC(OC(=O)C(c2ccccc2)c2ccccc2)C1 (configuration not stated),-3.33%
8,CC1CCN(C(=O)Oc2c(Cl)cc(Cl)c3cccnc23)CC1,-19.1%
9,O=[N+]([O-])c1cccc2n[nH]nc12,22.5%
10,CCOP(C)(=S)SCC(=O)NC(C)C(=O)O (configuration not stated),15.8%
11,O=C(OC1CN2CCC1CC2)C12CC3CC(CC(C3)C1)C2 (configuration not stated),6.45%
12,Cc1ccc(NP(C)(=O)Oc2ccccc2)c(C)c1 (configuration not stated),-19.1%
13,Cc1cc(C)cc(OP(C)(=O)Nc2ccccn2)c1 (configuration not stated),10%
14,CC1(CBr)Cn2c(nc3ccccc3c2=O)S1 (configuration not stated),0%
15,O=P1(Nc2ccc(Br)cn2)COc2ccccc2OC1,18.5%
16,O=P1(Nc2ncccn2)COc2ccccc2OC1,7.41%
17,COc1ccccc1OP(C)(=O)Nc1c(C)cccc1C (configuration not stated),22.7%

# From PubChem BioAssay AID688 (PCMD, 2007)
